Test in all cases: pull-down
The target of assay [1] is GST-AP2M1 (full-length human AP2M1) (human) (UniProt Q96CW1).
In assay [2] the target is T1, IRS1 peptide AMPAS (Y612 and M615 replaced by alanine) (human).
T1 sequence (peptide): CHTDDGAMPASPGVA

The chains behind the UniProt entries cited, without tags or fusion partners. Where a name states a change or a piece, a line headed by the entry shows the natural chain unless it says otherwise. A line that says so, or that is headed by a name, gives the form on record, which may keep a tag or linker. Residues count along the entry.
UniProt Q96CW1: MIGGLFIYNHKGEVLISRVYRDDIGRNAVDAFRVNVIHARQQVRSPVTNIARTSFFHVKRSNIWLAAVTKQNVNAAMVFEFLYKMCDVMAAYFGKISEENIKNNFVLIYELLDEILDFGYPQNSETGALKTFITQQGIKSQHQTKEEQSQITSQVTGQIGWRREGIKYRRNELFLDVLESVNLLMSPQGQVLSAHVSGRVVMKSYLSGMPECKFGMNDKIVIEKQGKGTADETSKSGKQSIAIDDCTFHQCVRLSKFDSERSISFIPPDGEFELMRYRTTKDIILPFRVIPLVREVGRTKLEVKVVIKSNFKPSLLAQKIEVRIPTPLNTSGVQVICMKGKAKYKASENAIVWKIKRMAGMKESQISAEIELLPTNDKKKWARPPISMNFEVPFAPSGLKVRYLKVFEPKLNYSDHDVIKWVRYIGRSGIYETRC
UniProt P35568: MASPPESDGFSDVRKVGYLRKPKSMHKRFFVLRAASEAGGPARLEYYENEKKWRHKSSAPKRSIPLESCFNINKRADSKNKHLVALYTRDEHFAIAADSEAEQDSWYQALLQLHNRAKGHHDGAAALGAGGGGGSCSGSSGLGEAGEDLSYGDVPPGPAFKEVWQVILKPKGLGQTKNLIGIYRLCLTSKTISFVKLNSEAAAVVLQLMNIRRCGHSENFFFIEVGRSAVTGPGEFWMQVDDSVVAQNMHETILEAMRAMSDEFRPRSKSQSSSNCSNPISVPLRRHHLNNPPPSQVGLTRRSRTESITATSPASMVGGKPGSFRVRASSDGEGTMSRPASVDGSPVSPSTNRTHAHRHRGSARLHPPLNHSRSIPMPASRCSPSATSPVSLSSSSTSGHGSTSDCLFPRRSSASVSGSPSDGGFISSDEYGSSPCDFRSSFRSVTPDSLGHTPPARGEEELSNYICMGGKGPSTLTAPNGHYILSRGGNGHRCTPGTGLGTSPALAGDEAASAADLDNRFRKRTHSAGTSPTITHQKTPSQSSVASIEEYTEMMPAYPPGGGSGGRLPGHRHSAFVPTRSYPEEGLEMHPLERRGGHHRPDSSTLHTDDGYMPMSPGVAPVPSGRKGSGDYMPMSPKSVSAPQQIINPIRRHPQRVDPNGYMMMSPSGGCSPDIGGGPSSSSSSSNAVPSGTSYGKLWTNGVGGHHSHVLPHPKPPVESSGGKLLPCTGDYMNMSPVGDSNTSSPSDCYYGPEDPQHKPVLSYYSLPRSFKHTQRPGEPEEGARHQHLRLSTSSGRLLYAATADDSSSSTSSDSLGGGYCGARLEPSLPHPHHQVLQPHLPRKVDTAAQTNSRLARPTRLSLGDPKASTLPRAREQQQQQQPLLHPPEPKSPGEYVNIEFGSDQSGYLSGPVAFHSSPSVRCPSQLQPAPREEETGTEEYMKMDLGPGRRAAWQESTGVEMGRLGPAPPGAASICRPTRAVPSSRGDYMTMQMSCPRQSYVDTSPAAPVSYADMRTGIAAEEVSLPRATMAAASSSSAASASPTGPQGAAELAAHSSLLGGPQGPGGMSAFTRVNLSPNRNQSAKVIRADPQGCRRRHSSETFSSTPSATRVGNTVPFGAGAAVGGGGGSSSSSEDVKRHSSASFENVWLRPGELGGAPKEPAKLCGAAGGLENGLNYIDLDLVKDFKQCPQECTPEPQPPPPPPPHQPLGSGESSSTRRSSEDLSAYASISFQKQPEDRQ
IRS1 (residues 449-864) 3YA (Y612A/Y632A/Y662A) (P35568, form named): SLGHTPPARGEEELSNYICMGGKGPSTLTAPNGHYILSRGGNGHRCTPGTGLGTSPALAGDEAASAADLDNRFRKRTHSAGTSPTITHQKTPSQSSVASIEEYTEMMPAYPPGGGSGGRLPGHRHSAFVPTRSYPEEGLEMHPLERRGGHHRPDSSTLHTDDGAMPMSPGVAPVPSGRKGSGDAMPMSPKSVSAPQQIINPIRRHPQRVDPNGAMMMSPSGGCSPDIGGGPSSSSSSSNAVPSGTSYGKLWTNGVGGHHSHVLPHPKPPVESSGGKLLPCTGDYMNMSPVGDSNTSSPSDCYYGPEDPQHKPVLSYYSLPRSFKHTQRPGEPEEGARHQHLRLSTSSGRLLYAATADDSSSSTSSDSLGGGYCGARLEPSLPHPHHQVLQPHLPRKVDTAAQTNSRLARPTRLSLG

The target in assay [3] is GST-AP2M1 (full-length human AP2M1) (human) (UniProt Q96CW1). This is another data set of the same source.

Like-named read-outs stand apart in the source and are kept apart here. Results are given in words; binding and its absence hold for the method and conditions named. For part of these data: Binding seen in cells or lysates may run through a third protein. Some results given as binding are weak or reduced against the parent protein; the word gives no strength.

Here are results for six molecules from paper doi:10.1101/419911.

As for “IRS1 YXXΦ-containing central region (residues 449-679) (from UniProt P35568 449-679) (domain or fragment)”, the binding entry in assay [1] was “binds”.
For “AP2M1 (residues 160-435) (from UniProt Q96CW1 160-435) (domain or fragment)”, in assay [2], the binding entry was “no binding”.
For “IRS1 (residues 449-864) (from UniProt P35568 449-864) (domain or fragment)”, the binding entry in assay [1] is “binds”.
In the case of “IRS1 (residues 449-864) 3YA (Y612A/Y632A/Y662A) (from UniProt P35568 449-864) (domain or fragment)”, the binding entry in assay [1] is recorded as “binds”.
Consider “Myc-IRS1 full-length (from UniProt P35568 1-1242)”, for which the binding result in assay [1] is “binds”.

B1: IRS2 fragment (residues 520-888) (domain or fragment, UniProt P81122 520-888)
chain: SIAETPPARDGSGGELYGYMSMDRPLSHCGRPYRRVSGDGAQDLDRGLRKRTYSLTTPARQRQVPQPSSASLDEYTLMRATFSGSSGRLCPSFPASSPKVAYNPYPEDYGDIEIGSHKSSSSNLGADDGYMPMTPGAALRSGGPNSCKSDDYMPMSPTSVSAPKQILQPRLAAALPPSGAAVPAPPSGVGRTFPVNGGGYKASSPAESSPEDSGYMRMWCGSKLSMENPDPKLLPNGDYLNMSPSEAGTAGTPPDFSAALRGGSEGLKGIPGHCYSSLPRSYKAPCSCSGDNDQYVLMSSPVGRILEEERLEPQATPGAGTFGAAGGSHTQPHHSAVPSSMRPSAIGGRPEGFLGQRCRAVRPTRLSLE
For B1, the binding entry in assay [3] is on record as “binds”.
